Experimental data from patent KR20230107478A.
No constants are given. Whether binding was seen depends on the method and setting. Some entries that bind do so weakly or less than the wild type.

By UniProt entry, the sequences of proteins in these tests, tags left out. Where a name states a change or a piece, a line headed by the entry shows the natural chain unless it says otherwise.
UniProt P07766: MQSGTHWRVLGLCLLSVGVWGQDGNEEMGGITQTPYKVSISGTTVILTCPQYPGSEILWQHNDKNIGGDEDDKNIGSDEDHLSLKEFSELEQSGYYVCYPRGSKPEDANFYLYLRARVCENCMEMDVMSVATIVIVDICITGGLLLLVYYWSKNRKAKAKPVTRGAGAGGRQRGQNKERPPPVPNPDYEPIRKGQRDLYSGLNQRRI
UniProt P04234: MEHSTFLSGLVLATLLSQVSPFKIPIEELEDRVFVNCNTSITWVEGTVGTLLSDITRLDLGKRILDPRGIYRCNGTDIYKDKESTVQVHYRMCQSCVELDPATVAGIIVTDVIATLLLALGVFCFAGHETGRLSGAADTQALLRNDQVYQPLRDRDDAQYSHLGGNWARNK

Target: 인간 CD3 (1차 인간 T 세포 상) (human) (UniProt P07766+P04234)
Assay: flow cytometry on CD3 expressing primary human T cells

binding: binds
B1: B7-H4xCD3 이중특이적 항체 1167 (bispecific antibody)
heavy 1: EVQLLESGGGLVQPGGSLRLSCAASGFTFSSYAMSWVRQAPGKGLEWVSAISGGGGSTYYADSVKGRFTISRDNSKNTLYLQMNSLRAEDTAVYYCARDIQWYGESTLFDYWGQGTLVTVSSASTKGPSVFPLAPCSRSTSESTAALGCLVKDYFPEPVTVSWNSGALTSGVHTFPAVLQSSGLYSLSSVVTVPSSNFGTQTYTCNVDHKPSNTKVDKTVERKCEVECPECPAPPVAGPSVFLFPPKPKDTLMISRTPEVTCVVVAVSHEDPEVQFNWYVDGVEVHNAKTKPREEQFNSTFRVVSVLTVVHQDWLNGKEYKCKVSNKGLPSSIEKTISKTKGQPREPQVYTLPPSREEMTKNQVSLTCEVKGFYPSDIAVEWESNGQPENNYKTTPPMLDSDGSFFLYSKLTVDKSRWQQGNVFSCSVMHEALHNHYTQKSLSLSPGK
light 1: DIQMTQSPSSLSASVGDRVTITCRASQSTRSHLAWYQQKPGKAPKLLIYKASSLEGGVPSRFSGSGSGTDFTLTISSLQPEDFATYYCQQYGSYSRTFGQGTKVEIKRTVAAPSVFIFPPSDEQLKSGTASVVCLLNNFYPREAKVQWKVDNALQSGNSQESVTEQDSKDSTYSLSSTLTLSKADYEKHKVYACEVTHQGLSSPVTKSFNRGEC
heavy 2: EVQLVESGGGLVQPGGSLRLSCAASGFTFSDYYMTWVRQAPGKGLEWVAFIRNQARGYTSDHNPSVKGRFTISRDNAKNSLYLQMNSLRAEDTAVYYCARDRPSYYVLDYWGQGTTVTVSSASTKGPSVFPLAPCSRSTSESTAALGCLVKDYFPEPVTVSWNSGALTSGVHTFPAVLQSSGLYSLSSVVTVPSSNFGTQTYTCNVDHKPSNTKVDKTVERKCRVRCPRCPAPPVAGPSVFLFPPKPKDTLMISRTPEVTCVVVAVSHEDPEVQFNWYVDGVEVHNAKTKPREEQFNSTFRVVSVLTVVHQDWLNGKEYKCKVSNKGLPSSIEKTISKTKGQPREPQVYTLPPSREEMTKNQVSLTCLVKGFYPSDIAVEWESNGQPENNYKTTPPMLDSDGSFFLYSRLTVDKSRWQQGNVFSCSVMHEALHNHYTQKSLSLSPGK
light 2: DIQMTQSPSSLSASVGDRVTITCTSSQSLFNVRSQKNYLAWYQQKPGKAPKLLIYWASTRESGVPSRFSGSGSGTDFTLTISSLQPEDFATYYCKQSYDLFTFGGGTKVEIKRTVAAPSVFIFPPSDEQLKSGTASVVCLLNNFYPREAKVQWKVDNALQSGNSQESVTEQDSKDSTYSLSSTLTLSKADYEKHKVYACEVTHQGLSSPVTKSFNRGEC
